The target in experiment [1] is ALMS1 (Alstrom syndrome protein 1) (human) (UniProt Q8TCU4). Briefly: co-immunoprecipitation with ALMS1 as bait, immunoblot; human mature adipocytes cultured without insulin. In general terms: A western blot detects proteins with antibodies after separation by electrophoresis.
Experiment [2] shares this target. The experiment in a line: co-immunoprecipitation with ALMS1 as bait, immunoblot; human mature adipocytes cultured with insulin.

Sequences of proteins named here, by UniProt entry; tags and fusion partners are left off. A change or cut given only in a name is not applied to a line headed by its entry.
UniProt Q8TCU4: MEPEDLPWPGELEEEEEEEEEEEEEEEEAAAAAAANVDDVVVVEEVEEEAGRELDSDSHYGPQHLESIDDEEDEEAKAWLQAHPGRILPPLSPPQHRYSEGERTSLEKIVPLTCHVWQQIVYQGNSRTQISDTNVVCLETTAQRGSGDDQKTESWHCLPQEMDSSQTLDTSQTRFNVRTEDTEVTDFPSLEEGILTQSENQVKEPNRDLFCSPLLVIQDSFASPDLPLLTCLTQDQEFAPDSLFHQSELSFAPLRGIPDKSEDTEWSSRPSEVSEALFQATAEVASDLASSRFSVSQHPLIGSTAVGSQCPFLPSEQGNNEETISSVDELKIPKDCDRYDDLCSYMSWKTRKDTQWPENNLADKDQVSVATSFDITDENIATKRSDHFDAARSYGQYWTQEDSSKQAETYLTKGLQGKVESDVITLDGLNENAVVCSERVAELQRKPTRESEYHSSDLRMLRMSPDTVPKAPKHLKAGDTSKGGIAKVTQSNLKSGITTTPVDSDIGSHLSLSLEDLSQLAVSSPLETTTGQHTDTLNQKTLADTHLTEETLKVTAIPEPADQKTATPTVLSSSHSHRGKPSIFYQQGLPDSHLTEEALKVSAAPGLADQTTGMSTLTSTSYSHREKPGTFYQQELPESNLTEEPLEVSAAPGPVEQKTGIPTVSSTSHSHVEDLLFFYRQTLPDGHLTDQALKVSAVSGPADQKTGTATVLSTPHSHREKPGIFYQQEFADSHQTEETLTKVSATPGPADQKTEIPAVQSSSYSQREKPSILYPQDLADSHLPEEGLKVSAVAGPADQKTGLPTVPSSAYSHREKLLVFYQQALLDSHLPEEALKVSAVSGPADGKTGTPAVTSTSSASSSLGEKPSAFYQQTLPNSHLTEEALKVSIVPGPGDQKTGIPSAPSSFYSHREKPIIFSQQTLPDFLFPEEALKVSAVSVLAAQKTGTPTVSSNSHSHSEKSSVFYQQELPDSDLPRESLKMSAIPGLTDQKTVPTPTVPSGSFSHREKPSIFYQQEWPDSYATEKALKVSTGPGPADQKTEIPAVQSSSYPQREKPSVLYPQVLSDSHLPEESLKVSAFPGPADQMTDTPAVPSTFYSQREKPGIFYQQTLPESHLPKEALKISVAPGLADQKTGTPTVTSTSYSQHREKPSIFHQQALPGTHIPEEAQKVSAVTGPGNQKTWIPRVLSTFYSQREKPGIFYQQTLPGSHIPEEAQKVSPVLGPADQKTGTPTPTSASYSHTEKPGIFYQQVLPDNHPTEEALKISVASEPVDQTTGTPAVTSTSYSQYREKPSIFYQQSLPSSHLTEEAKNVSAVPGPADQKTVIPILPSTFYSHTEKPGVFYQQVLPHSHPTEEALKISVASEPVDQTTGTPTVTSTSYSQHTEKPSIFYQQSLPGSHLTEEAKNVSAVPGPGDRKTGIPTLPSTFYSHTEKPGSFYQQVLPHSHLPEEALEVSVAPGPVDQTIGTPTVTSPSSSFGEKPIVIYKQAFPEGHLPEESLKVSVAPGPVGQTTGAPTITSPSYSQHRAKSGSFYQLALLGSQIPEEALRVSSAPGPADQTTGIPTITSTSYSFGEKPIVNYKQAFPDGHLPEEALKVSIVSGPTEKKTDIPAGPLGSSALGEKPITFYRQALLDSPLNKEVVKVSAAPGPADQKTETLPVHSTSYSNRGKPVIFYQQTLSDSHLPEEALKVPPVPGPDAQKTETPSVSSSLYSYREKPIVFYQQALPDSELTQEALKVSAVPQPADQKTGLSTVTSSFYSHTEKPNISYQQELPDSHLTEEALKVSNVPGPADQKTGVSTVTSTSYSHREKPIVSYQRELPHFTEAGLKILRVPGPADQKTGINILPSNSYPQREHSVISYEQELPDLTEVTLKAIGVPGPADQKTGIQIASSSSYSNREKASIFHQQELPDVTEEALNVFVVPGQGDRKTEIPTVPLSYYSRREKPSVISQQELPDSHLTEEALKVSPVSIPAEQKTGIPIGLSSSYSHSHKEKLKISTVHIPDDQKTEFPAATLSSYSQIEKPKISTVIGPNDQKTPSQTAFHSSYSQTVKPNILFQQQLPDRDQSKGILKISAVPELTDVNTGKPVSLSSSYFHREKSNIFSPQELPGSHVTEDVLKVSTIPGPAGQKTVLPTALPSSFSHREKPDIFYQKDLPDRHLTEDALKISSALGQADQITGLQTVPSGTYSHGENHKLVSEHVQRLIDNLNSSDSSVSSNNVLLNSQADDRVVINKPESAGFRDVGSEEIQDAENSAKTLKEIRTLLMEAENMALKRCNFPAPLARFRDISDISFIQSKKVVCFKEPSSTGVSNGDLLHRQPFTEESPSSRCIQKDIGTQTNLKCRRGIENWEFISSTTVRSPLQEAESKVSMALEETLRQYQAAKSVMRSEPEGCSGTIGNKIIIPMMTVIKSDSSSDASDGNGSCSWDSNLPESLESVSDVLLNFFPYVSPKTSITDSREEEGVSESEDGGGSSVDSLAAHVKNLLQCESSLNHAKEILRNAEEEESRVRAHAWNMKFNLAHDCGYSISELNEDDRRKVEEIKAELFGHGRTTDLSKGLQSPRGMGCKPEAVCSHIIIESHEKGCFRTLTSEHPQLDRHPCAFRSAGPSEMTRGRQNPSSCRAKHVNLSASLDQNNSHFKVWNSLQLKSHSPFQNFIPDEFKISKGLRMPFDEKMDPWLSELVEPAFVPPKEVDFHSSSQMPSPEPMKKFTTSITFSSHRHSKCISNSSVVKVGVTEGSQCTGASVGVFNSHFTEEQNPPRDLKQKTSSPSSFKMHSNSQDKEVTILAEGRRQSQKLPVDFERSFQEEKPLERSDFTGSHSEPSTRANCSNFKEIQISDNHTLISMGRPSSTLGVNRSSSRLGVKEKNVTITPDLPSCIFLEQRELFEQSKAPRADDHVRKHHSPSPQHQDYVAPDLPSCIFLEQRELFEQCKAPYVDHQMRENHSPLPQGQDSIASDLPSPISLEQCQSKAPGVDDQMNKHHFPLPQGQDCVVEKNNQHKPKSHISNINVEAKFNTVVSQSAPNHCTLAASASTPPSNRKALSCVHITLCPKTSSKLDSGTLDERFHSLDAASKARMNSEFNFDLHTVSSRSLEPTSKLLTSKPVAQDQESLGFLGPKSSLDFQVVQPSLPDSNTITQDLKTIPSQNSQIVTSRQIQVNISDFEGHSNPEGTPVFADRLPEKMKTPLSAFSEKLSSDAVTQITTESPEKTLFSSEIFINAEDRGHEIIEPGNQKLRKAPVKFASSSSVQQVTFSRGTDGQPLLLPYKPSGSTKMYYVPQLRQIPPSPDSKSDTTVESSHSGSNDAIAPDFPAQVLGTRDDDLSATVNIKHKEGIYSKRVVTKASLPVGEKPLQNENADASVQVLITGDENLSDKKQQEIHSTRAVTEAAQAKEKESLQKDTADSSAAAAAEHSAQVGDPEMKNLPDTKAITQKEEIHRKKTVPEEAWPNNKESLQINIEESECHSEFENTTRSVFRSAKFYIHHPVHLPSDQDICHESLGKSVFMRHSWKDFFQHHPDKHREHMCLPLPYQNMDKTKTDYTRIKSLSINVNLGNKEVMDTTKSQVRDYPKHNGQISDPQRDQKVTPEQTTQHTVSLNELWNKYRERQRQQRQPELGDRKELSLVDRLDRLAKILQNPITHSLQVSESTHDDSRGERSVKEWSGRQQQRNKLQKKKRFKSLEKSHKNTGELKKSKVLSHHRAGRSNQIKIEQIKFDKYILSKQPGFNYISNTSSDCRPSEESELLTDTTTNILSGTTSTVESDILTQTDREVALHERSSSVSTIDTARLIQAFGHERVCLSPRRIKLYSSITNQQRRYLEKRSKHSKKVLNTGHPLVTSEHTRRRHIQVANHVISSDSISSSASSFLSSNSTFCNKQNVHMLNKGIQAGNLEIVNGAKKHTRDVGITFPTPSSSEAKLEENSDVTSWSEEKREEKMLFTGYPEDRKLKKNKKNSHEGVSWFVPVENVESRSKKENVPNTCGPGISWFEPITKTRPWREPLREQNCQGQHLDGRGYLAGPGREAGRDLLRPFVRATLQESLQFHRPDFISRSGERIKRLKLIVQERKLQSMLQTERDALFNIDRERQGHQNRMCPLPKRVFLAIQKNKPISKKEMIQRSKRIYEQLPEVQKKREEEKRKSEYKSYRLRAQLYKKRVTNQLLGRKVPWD

Results are given in words; binding and its absence hold for the method and conditions named. In cells and extracts the contact can be indirect. Some binding calls cover weakened binding; strength is not graded here.

As for “Protein kinase C alpha type (αPKC) (from UniProt P17252 2-672) (enzyme)”, the binding entry in experiment [1] is given as “binds”.

B1: TBC1D4 (TBC1 domain family member 4) (protein)
chain: MEPPSCIQDEPFPHPLEPEPGVSAQPGPGKPSDKRFRLWYVGGSCLDHRTTLPMLPWLMAEIRRRSQKPEAGGCGAPAAREVILVLSAPFLRCVPAPGAGASGGTSPSATQPNPAVFIFEHKAQHISRFIHNSHDLTYFAYLIKAQPDDPESQMACHVFRATDPSQVPDVISSIRQLSKAAMKEDAKPSKDNEDAFYNSQKFEVLYCGKVTVTHKKAPSSLIDDCMEKFSLHEQQRLKIQGEQRGPDPGEDLADLEVVVPGSPGDCLPEEADGTDTHLGLPAGASQPALTSSRVCFPERILEDSGFDEQQEFRSRCSSVTGVQRRVHEGSQKSQPRRRHASAPSHVQPSDSEKNRTMLFQVGRFEINLISPDTKSVVLEKNFKDISSCSQGIKHVDHFGFICRESPEPGLSQYICYVFQCASESLVDEVMLTLKQAFSTAAALQSAKTQIKLCEACPMHSLHKLCERIEGLYPPRAKLVIQRHLSSLTDNEQADIFERVQKMKPVSDQEENELVILHLRQLCEAKQKTHVHIGEGPSTISNSTIPENATSSGRFKLDILKNKAKRSLTSSLENIFSRGANRMRGRLGSVDSFERSNSLASEKDYSPGDSPPGTPPASPPSSAWQTFPEEDSDSPQFRRRAHTFSHPPSSTKRKLNLQDGRAQGVRSPLLRQSSSEQCSNLSSVRRMYKESNSSSSLPSLHTSFSAPSFTAPSFLKSFYQNSGRLSPQYENEIRQDTASESSDGEGRKRTSSTCSNESLSVGGTSVTPRRISWRQRIFLRVASPMNKSPSAMQQQDGLDRNELLPLSPLSPTMEEEPLVVFLSGEDDPEKIEERKKSKELRSLWRKAIHQQILLLRMEKENQKLEASRDELQSRKVKLDYEEVGACQKEVLITWDKKLLNCRAKIRCDMEDIHTLLKEGVPKSRRGEIWQFLALQYRLRHRLPNKQQPPDISYKELLKQLTAQQHAILVDLGRTFPTHPYFSVQLGPGQLSLFNLLKAYSLLDKEVGYCQGISFVAGVLLLHMSEEQAFEMLKFLMYDLGFRKQYRPDMMSLQIQMYQLSRLLHDYHRDLYNHLEENEISPSLYAAPWFLTLFASQFSLGFVARVFDIIFLQGTEVIFKVALSLLSSQETLIMECESFENIVEFLKNTLPDMNTSEMEKIITQVFEMDISKQLHAYEVEYHVLQDELQESSYSCEDSETLEKLERANSQLKRQNMDLLEKLQVAHTKIQALESNLENLLTRETKMKSLIRTLEQEKMAYQKTVEQLRKLLPADALVNCDLLLRDLNCNPNNKAKIGNKP
Take B1: the binding entry in experiment [2] is listed as “binds”.
